Source: PMC5410595, “In Vitro and In Silico Antidiabetic and Antimicrobial Evaluation of Constituents from Kickxia ramosissima (Nanorrhinum ramosissimum)” (Frontiers in Pharmacology, 2017)

Experiments:
[1] = test system: MRC-5, human fetal lung fibroblasts; assay: cells; conditions: MRC5, read-out: IC50 MRC-5
Description: (§1) Fractions and isolated compounds were evaluated for antimicrobial activity in an integrated screening panel, also including the human MRC-5 cell line to assess selectivity, as reported before ([Cos et al., 2006]; [Mesia et al., 2008]; [Baldé et al., 2010]; [Amin et al., 2016]).

[2] = test system: Candida albicans, B59630 Janssen strain; assay: microbe, parasite or virus in culture; conditions: read-out: IC50 Candida albicans
Description: as §1

Row | Compound | IC50 [1] [µM] | IC50 [2] [µM]
1 | CC/C(=C(\c1ccccc1)c1ccc(OCCN(C)C)cc1)c1ccccc1 [Tamoxifen, reference compound] | 10.5 | 
2 | Clc1ccc(COC(Cn2ccnc2)c2ccc(Cl)cc2Cl)c(Cl)c1 (centres unmarked) [miconazole] |  | 4.7
